These are yes or no findings as the source states them, for the method shown. In cells and extracts the contact can be indirect. Some results given as binding are weak or reduced against the parent protein; the word gives no strength.
Molecular target: cyclin D3 (UniProt P30281)
Test: co-IP; CHO cells cotransfected with CDK4, cyclin D3, p21 (0.2 or 2 μg vector) and Tax-HA (WT, K346R or K346Q), in part with HDAC7-Flag (1 or 2 μg); lysates immunoprecipitated with anti-cyclin D3 mAb, Western blot with anti-cyclin D3, anti-CDK4, anti-p21 and anti-HA; lysis buffer 150 mM NaCl, 50 mM Tris-HCl pH 7.5, 0.5% Nonidet P-40; 4°C, 3 h

Sequences of proteins named here, by UniProt entry; tags and fusion partners are left off.
UniProt P30281: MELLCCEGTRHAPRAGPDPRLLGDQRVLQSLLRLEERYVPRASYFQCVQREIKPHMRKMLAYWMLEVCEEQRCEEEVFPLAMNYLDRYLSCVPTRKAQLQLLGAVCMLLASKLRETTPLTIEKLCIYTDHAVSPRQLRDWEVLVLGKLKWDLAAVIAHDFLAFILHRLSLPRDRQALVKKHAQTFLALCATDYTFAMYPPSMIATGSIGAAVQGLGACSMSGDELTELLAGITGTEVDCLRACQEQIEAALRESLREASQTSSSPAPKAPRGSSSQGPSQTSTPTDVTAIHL
UniProt P38936: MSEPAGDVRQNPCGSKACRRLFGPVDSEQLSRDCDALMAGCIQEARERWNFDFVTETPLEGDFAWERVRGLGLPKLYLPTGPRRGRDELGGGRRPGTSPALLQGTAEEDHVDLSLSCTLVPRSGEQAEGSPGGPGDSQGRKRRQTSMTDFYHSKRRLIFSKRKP

## WT Tax-HA (from UniProt P03409 1-353)
  binding: binds

## p21^CIP (from UniProt P38936 1-164)
  binding: binds

From PMC3734113
